Experimental data reported in the supplement of paper PMC12823440, “Inhibitors supercharge kinase turnover through native proteolytic circuits” (Nature, 2025).
Where a name gives a salt, the structure may show the parent alone. The list shows a part of the results. Hit calls seldom repeat between salt and free forms of one compound.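 In K562 cells expressing nanoluciferase-fused kinases, luminescence was recorded at 4 h intervals between 2 and 18 h, normalized as percent of control with DMSO at 100% and a positive control at 0%. A significant (2 sigma) signal drop marks a time point as decreased. The authors' rule for a hit is not shown and takes in more than the number of time points.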

Amino acid sequences for entries named in this document (tags omitted). A change or cut given only in a name is not applied to a line headed by its entry.
UniProt Q9UQM7, whole entry: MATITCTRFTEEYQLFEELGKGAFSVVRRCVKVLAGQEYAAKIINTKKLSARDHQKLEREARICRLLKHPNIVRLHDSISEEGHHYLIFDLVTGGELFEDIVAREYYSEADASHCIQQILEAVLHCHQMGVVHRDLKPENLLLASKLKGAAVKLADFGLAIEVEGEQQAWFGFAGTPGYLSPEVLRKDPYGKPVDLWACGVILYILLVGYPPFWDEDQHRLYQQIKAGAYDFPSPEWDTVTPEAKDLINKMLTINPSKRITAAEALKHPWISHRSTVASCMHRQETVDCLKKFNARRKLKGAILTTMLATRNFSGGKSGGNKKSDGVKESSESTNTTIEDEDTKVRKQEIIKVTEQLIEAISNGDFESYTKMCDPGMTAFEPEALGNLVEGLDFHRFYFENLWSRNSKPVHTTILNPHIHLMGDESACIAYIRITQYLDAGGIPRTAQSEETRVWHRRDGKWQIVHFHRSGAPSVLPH
UniProt Q13555: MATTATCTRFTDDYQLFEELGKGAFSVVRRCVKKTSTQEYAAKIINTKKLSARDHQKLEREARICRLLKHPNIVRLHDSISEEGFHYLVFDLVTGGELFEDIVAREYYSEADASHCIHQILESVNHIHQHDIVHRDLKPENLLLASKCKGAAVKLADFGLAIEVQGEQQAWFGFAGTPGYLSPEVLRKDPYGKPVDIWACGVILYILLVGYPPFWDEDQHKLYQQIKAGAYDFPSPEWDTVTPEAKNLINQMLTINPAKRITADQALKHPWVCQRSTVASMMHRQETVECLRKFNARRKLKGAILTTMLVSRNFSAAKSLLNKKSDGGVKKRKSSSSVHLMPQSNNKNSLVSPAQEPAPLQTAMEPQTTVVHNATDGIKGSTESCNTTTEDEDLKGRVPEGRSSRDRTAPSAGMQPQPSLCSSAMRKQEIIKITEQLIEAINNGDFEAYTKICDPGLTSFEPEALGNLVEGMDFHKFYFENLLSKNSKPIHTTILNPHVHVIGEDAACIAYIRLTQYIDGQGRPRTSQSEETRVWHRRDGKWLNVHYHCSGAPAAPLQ
UniProt Q15131: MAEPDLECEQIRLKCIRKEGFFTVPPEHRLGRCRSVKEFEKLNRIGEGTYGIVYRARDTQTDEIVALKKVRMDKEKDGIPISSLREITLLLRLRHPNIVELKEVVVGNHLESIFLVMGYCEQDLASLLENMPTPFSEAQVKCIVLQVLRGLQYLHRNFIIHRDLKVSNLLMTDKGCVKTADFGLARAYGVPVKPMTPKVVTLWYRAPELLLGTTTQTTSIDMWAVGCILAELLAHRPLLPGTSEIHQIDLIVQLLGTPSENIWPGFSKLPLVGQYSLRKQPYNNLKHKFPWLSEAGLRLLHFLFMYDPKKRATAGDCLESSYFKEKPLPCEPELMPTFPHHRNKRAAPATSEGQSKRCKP
UniProt Q00526: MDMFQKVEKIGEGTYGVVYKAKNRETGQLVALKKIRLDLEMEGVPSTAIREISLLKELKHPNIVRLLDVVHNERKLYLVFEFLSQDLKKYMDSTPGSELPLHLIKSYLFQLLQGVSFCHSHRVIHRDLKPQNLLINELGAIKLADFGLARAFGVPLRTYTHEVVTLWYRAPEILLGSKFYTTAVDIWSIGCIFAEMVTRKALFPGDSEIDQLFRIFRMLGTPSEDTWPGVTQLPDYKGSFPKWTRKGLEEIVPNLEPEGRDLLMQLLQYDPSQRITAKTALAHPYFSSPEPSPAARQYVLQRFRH
UniProt Q00535, whole entry, looked up: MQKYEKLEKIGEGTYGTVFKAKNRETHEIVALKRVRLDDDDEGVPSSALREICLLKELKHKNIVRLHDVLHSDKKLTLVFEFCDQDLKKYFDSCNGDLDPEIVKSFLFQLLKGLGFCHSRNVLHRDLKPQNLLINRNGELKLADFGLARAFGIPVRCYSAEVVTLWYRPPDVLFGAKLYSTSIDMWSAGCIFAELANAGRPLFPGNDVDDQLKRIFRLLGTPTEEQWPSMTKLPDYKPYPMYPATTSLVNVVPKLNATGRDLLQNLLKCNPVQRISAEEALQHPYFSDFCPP
UniProt Q00534, whole entry: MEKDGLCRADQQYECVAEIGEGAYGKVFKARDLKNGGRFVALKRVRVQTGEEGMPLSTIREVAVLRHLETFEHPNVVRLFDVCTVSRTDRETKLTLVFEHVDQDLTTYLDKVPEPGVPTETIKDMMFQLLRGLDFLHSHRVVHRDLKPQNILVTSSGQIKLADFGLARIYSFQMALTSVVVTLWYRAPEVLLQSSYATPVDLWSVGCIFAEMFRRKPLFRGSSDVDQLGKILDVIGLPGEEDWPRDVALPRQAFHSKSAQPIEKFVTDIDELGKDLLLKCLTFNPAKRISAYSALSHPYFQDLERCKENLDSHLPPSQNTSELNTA
UniProt O96017, whole entry: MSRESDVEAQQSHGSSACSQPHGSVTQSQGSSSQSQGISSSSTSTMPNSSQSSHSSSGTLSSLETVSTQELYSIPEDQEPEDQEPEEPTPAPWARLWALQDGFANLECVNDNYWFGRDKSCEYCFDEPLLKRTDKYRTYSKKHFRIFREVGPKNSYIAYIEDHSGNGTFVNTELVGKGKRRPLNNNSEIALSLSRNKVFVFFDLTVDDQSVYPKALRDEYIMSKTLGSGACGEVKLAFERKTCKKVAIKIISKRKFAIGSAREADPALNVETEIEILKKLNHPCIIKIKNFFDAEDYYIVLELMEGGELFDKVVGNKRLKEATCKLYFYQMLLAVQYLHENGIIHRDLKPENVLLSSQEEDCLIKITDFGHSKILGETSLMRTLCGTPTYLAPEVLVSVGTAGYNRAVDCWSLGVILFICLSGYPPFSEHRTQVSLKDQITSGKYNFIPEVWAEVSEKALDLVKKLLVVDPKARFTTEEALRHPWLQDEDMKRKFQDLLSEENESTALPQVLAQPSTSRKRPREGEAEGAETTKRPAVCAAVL
UniProt P07333, whole entry: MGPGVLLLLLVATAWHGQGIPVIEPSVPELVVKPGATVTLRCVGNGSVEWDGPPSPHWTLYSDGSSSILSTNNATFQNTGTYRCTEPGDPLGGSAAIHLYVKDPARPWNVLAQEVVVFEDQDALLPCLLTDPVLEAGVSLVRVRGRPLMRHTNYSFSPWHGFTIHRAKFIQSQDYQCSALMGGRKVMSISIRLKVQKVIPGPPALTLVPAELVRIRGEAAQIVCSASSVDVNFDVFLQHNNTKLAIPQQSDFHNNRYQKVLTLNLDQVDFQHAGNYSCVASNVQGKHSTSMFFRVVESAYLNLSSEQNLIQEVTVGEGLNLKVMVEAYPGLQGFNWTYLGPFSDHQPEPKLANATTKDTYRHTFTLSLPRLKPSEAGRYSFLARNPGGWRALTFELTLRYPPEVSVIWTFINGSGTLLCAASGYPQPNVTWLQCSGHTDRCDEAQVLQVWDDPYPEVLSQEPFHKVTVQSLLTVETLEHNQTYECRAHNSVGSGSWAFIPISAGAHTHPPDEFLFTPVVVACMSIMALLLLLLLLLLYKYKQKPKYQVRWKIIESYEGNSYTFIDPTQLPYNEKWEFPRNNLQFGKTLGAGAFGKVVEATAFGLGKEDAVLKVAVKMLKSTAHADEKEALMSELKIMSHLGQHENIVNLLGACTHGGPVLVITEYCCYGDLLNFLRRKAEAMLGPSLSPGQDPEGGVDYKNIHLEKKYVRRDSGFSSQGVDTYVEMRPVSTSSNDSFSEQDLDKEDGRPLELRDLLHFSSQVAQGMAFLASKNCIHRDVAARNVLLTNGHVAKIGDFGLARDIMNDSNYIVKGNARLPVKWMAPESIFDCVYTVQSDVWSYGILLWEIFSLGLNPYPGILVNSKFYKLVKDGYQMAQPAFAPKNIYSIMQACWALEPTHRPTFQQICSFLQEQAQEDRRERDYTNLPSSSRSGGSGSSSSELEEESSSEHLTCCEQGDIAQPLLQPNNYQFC
UniProt P41240: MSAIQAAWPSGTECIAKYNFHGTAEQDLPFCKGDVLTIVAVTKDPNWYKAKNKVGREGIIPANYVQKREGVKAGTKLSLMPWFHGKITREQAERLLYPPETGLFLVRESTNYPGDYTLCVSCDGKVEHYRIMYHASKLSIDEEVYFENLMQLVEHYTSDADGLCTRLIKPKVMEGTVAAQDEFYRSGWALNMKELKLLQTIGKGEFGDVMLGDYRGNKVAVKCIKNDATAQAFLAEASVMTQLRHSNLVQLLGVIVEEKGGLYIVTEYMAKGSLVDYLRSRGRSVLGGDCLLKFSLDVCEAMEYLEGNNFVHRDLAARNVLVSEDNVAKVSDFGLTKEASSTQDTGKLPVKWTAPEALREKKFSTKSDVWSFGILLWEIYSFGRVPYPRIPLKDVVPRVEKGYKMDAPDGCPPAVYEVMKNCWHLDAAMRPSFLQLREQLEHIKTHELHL

How the values were obtained:
Test in all cases: number of time points (of 5) at which kinase-Nluc abundance scored as decreased, DMSO-normalised (count); higher = more persistent destabilization
Settings in all cases: K562; 2-18 h
CAMK2A = CAMK2A (UniProt Q9UQM7)
CAMK2G = CAMK2G (UniProt Q13555)
CDK10 = CDK10 (UniProt Q15131)
CDK2 = CDK2 (UniProt P24941)
CDK3 = CDK3 (UniProt Q00526)
CDK5 = CDK5 (UniProt Q00535)
CDK6 = CDK6 (UniProt Q00534)
CHEK2 = CHEK2 (UniProt O96017)
CSF1R = CSF1R (UniProt P07333)
CSK = CSK (UniProt P41240)

| SMILES | number of time points (CAMK2A) | number of time points (CAMK2G) | number of time points (CDK10) | number of time points (CDK2) | number of time points (CDK3) | number of time points (CDK5) | number of time points (CDK6) | number of time points (CHEK2) | number of time points (CSF1R) | number of time points (CSK) |
| --- | --- | --- | --- | --- | --- | --- | --- | --- | --- | --- |
| N#Cc1c(-c2ccccc2)cc(-c2cc(Br)ccc2O)[nH]c1=O (10 µM) | 0 | 0 | 0 | 0 | 0 | 0 | 0 | 0 | 0 | 0 |
| O=C(CNC(=O)c1ccc(-c2ccccc2)cc1)NC1CCCc2ccccc21 (stereo not given) [TAO Kinase inhibitor 1] (10 µM) | 0 | 0 | 0 | 0 | 0 | 0 | 0 | 0 | 0 | 0 |
| NCc1ccc(Nc2ncc(F)c(Nc3ccccc3)n2)cc1 (10 µM) | 0 | 0 | 0 | 0 | 0 | 0 | 0 | 0 | 0 | 0 |
| N#Cc1ccc2ncnc(NC3CCC(N4CCOCC4)CC3)c2c1 (stereo not given) (10 µM) | 0 | 0 | 0 | 0 | 0 | 0 | 0 | 0 | 0 | 0 |
| Cc1ccc(S(=O)(=O)/C=C/C#N)cc1 (10 µM) | 0 | 0 | 0 | 0 | 0 | 0 | 3 | 0 | 0 | 0 |
| COc1cccc(-n2c(=O)[nH]c3cc(Cl)n(-c4ccc(-c5cccc(OC)c5O)cc4)c3c2=O)c1 (2.5 µM) | 0 | 0 | 0 | 0 | 0 | 0 | 0 | 0 | 0 | 0 |
| COC1(c2sc3c(N4CCOCC4)nc(-c4cnc(N)nc4)nc3c2C)COC1 (2.5 µM) | 0 | 0 | 0 | 0 | 0 | 0 | 0 | 0 | 0 | 0 |
| COc1cc([N+](=O)[O-])ccc1S(=O)(=O)N1C[C@@H](CN2CCN(c3ccccn3)CC2)[C@H](c2cccc(F)c2)C1 (relative stereo) (10 µM) | 0 | 0 | 0 | 0 | 0 | 0 | 0 | 0 | 0 | 0 |
| CCN(CC)S(=O)(=O)c1ccc(OC)c(N2CCN(C(=O)c3ccc(F)cc3C(F)(F)F)CC2)c1 (10 µM) | 0 | 0 | 0 | 0 | 0 | 0 | 0 | 0 | 0 | 0 |
| C=CC(=O)Nc1cc2c(Nc3ccc(OCc4ccccn4)c(Cl)c3)ncnc2cc1OCCN1CCOCC1 (10 µM) | 0 | 0 | 0 | 0 | 0 | 0 | 0 | 0 | 0 | 0 |
| COc1ccc([C@@H]2CC(=O)c3c(O)cc(O)cc3O2)cc1O [Hesperetin] (10 µM) | 0 | 0 | 0 | 0 | 0 | 0 | 0 | 0 | 0 | 0 |
| OCCNC1CCCc2c1[nH]c1ccc(-c3ccccc3)cc21 (stereo not given) (2.5 µM) | 0 | 0 | 0 | 0 | 0 | 0 | 0 | 0 | 0 | 0 |
| CS(=O)(=O)c1ccc(-c2cnc(N)c(C(=O)Nc3ccccc3)n2)cc1 (10 µM) | 0 | 0 | 0 | 0 | 0 | 0 | 0 | 0 | 0 | 0 |
| CC1CCc2nc(N)c(C#N)c(-c3cccnc3)c2C1 (stereo not given) (10 µM) | 0 | 0 | 0 | 0 | 0 | 0 | 0 | 0 | 0 | 0 |
| OC(COc1ccc(C(F)(F)F)cc1)CN(Cc1ccccc1)Cc1ccccc1 (stereo not given) (2.5 µM) | 0 | 0 | 0 | 0 | 0 | 0 | 0 | 0 | 0 | 0 |
| COc1ccc2[nH]cc(/C=C3\C(=O)Nc4ccc(NC(=O)CCN5CCCCC5)cc43)c2c1 (2.5 µM) | 0 | 0 | 0 | 0 | 0 | 0 | 0 | 0 | 0 | 0 |
| O=c1cc(O)cc(/C=C/c2ccc(O)c(O)c2)o1 [Hispidin] (10 µM) | 0 | 0 | 0 | 0 | 0 | 0 | 0 | 0 | 0 | 0 |
| C=C1C(=O)O[C@@H]2C[C@@]3(C)CCC[C@H](C)C3=C[C@H]12 [Alantolactone] (10 µM) | 0 | 0 | 0 | 0 | 0 | 0 | 0 | 0 | 0 | 0 |

| SMILES | number of time points (CAMK2A) | number of time points (CAMK2G) | number of time points (CDK10) | number of time points (CDK2) | number of time points (CDK3) | number of time points (CDK5) | number of time points (CDK6) | number of time points (CHEK2) | number of time points (CSF1R) | number of time points (CSK) |
| --- | --- | --- | --- | --- | --- | --- | --- | --- | --- | --- |
| Fc1ccc(-c2nc(-c3ccccc3F)[nH]c2-c2ccncc2)cc1 (2.5 µM) | 0 | 0 | 0 | 0 | 0 | 0 | 0 | 0 | 0 | 0 |
| CO[C@H]1C[C@@H]2CC[C@@H](C)[C@@](O)(O2)C(=O)C(=O)N2CCCC[C@H]2C(=O)O[C@H]([C@H](C)C[C@@H]2CC[C@@H](O)[C@H](OC)C2)CC(=O)[C@H](C)/C=C(\C)[C@@H](O)[C@@H](OC)C(=O)[C@H](C)C[C@H](C)/C=C/C=C/C=C/1C [Rapamycin] (10 µM) | 0 | 0 | 0 | 0 | 0 | 0 | 0 | 0 | 0 | 0 |
| C=CC(=O)Nc1cccc(C)c1Nc1ncc2cc(-c3c(Cl)c(OC)cc(OC)c3Cl)ccc2n1 (2.5 µM) | 0 | 0 | 0 | 0 | 0 | 0 | 0 | 0 | 0 | 0 |
| C[C@]1(O)CCC[C@@H]1n1c(=O)c(C(F)F)cc2cnc(NC3CCN(S(C)(=O)=O)CC3)nc21 (10 µM) | 0 | 0 | 0 | 0 | 0 | 0 | 0 | 0 | 0 | 0 |
| CNCc1ccccc1-c1csc([C@@H](C)Nc2nc(C)nc3cc(OC)c(OC)cc23)c1 (2.5 µM) | 0 | 0 | 0 | 0 | 0 | 0 | 0 | 0 | 0 | 0 |
| O=C(Nc1cc(Oc2cc(F)c(NC(=O)C3(C(=O)Nc4ccc(F)cc4)CC3)cc2F)ccn1)C1CC1 [Altiratinib] (10 µM) | 0 | 0 | 0 | 0 | 0 | 0 | 2 | 0 | 0 | 0 |
| Cc1cc2cc(Nc3ccnc(Nc4ccc5[nH]c(C)cc5c4)n3)ccc2[nH]1 (2.5 µM) | 0 | 0 | 0 | 0 | 0 | 0 | 0 | 0 | 0 | 0 |
| O=C(/C=C/c1ccc(O[C@@H]2O[C@H](CO)[C@@H](O)[C@H](O)[C@H]2O[C@@H]2OC[C@](O)(CO)[C@H]2O)cc1)c1ccc(O)cc1O [Isoliquiritin apioside] (10 µM) | 0 | 0 | 0 | 0 | 0 | 0 | 0 | 0 | 0 | 0 |
| Nc1nccc(Oc2ccc(NC(=O)c3cn(COP(=O)(O)O)cc(-c4ccc(F)cc4)c3=O)cc2F)c1Cl (10 µM) | 0 | 0 | 0 | 0 | 0 | 0 | 0 | 0 | 0 | 0 |
| O=c1oc2cc(O)ccc2c2ccccc12 [Urolithin B] (10 µM) | 0 | 0 | 0 | 0 | 0 | 0 | 0 | 0 | 0 | 0 |
| CN(C)CCN(Cc1ccc(Cl)cc1)c1ccccn1 [Chloropyramine hydrochloride] (10 µM) | 0 | 0 | 0 | 0 | 0 | 0 | 0 | 0 | 0 | 0 |
| C[C@@]1(O)CCC[C@H]1n1c(=O)c(C(F)F)cc2cnc(NC3CCN(S(C)(=O)=O)CC3)nc21 (2.5 µM) | 0 | 0 | 0 | 0 | 0 | 0 | 0 | 0 | 0 | 0 |
| N[C@H](Cc1c[nH]c2ccccc12)C(=O)N/N=C/c1ccc2nccnc2c1 [Rhosin (hydrochloride)] (10 µM) | 0 | 0 | 0 | 0 | 0 | 0 | 0 | 0 | 0 | 0 |
| Nc1ncnc2c1c(-c1ccc(Oc3ccccc3)cc1)nn2C1CCCNC1 (racemic) (2.5 µM) | 0 | 0 | 0 | 0 | 0 | 0 | 0 | 0 | 0 | 0 |
| COc1ccc(Cl)cc1NC(=O)Nc1cc(C)nc2ccccc12 (2.5 µM) | 0 | 0 | 0 | 0 | 0 | 0 | 0 | 0 | 0 | 0 |
| C=C(C)C(=O)Nc1cccc(-c2ncnc3[nH]cc(C(=O)OCC)c23)c1 (10 µM) | 0 | 0 | 0 | 0 | 0 | 0 | 0 | 0 | 0 | 0 |
| Nc1ncnc2c1ncn2[C@@H]1O[C@H](CO)C[C@H]1O [Cordycepin] (10 µM) | 0 | 0 | 0 | 0 | 0 | 0 | 0 | 0 | 0 | 0 |
| C#CCN(C)C(=O)CCNc1nc(N2CCN(C(=O)C=C)CC2)c2cc(Cl)c(-c3c(O)cccc3F)c(F)c2n1 [ARS-1323-alkyne] (2.5 µM) | 0 | 0 | 0 | 0 | 0 | 0 | 0 | 0 | 0 | 0 |

Ordered by count of non-hydrogen atoms (ascending): 3 of the compounds above.

| SMILES | number of time points (CAMK2A) | number of time points (CAMK2G) | number of time points (CDK10) | number of time points (CDK2) | number of time points (CDK3) | number of time points (CDK5) | number of time points (CDK6) | number of time points (CHEK2) | number of time points (CSF1R) | number of time points (CSK) |
| --- | --- | --- | --- | --- | --- | --- | --- | --- | --- | --- |
| Fc1ccc(-c2nc(-c3ccccc3F)[nH]c2-c2ccncc2)cc1 (2.5 µM) | 0 | 0 | 0 | 0 | 0 | 0 | 0 | 0 | 0 | 0 |
| Cc1cc2cc(Nc3ccnc(Nc4ccc5[nH]c(C)cc5c4)n3)ccc2[nH]1 (2.5 µM) | 0 | 0 | 0 | 0 | 0 | 0 | 0 | 0 | 0 | 0 |
| Nc1ncnc2c1c(-c1ccc(Oc3ccccc3)cc1)nn2C1CCCNC1 (racemic) (2.5 µM) | 0 | 0 | 0 | 0 | 0 | 0 | 0 | 0 | 0 | 0 |
